Measured values: PMC7290235, “Regulation of Exopolysaccharide Production by ProE, a Cyclic-Di-GMP Phosphodiesterase in Pseudomonas aeruginosa PAO1” (Frontiers in Microbiology, 2020)
No constants are given. Whether binding was seen depends on the method and setting. Some results given as binding are weak or reduced against the parent protein; the word gives no strength.

Biological target: ProE (PA5295), GGDEF-EAL c-di-GMP phosphodiesterase of Pseudomonas aeruginosa PAO1 (Pseudomonas aeruginosa PAO1) (UniProt Q9HTQ9)
Assay: two-hybrid; BacterioMatch II bacterial two-hybrid (Stratagene); pBT-proE (bait) and pTRG-proE (prey) co-transformed into XL1-Blue MRF' Kan; growth on M9+ His-deficient medium with 5 mM 3-AT, 24-72 h, 30°C; positive colonies re-streaked with 5 mM 3-AT and 12.5 mg/ml streptomycin

B1: ProE (PA5295), GGDEF-EAL c-di-GMP phosphodiesterase of Pseudomonas aeruginosa PAO1 (enzyme, UniProt Q9HTQ9 1-558)
chain: MSAPAEPLRLLLLADTPDWAPLLGERLRALGPAFSLSIVTTWEGAATLFAAEPRGLLLATPACLPLGTPCPWPVILLLQQEPAQAPVGVVDWLAAEQLSEDSLRRCLRYARERLGLQATLQLLAEQDPLTGIANRQGFQTLLAARLSEFDGRGLVLGHLDLDNFRHVNDSLGHQGGDRLILQVVNRLRGFMENGDSLARLGSDEFALLLDTRRDPQRAERVAERIVECLGEPYWIDGESLLLGCSLGLAHARADEGADPLMWHAHIAMQQAKSRQGCTFHVFDERINRGVRSLADLEAELRRALRRDELELHYQPRLCLDSGRIVGLEALVRWRHGERGLLTPSEFVPLAEESGLIVPLGYWVIARALRDMQWLNGRGLEPLHMAVNLSFRQFQDSQLLPTLQRLIEEHGVDARWLEFELTETAVMRRSDQVLQTMQALGQLGVRFSLDDFGTGFSSFVHLNSLPITLLKIDRSFVGGMDQRAENFQLVRAMINLAHNLNLEVVAEGVETLRQQEQLRDFGCDQVQGYWISPPLPLAELARFLGIGERSAHRGQPLGN
**Q.** With B1 as the binder, how does the binding read?
**A.** binds
